# Data reported in PubChem BioAssay AID588499 (NMMLSC, 2011).
# The whole screen tested about 360,000 compounds, of which about 610 (0.17%) were called active. The shares of active, inactive and inconclusive entries below differ from those in the screen. Rule as the data show it: active = inhibition above about 30%; inconclusive = no clear call, values can overlap the other calls; inactive = below that.
# Tested on: Botulinum neurotoxin type A light chain protease (Clostridium botulinum A str. ATCC 3502)
# Assay: blockers of BoNT/A LC substrate cleavage – biochemical, flow cytometry, MLPCN library, primary screen (AID 588499); also: plate controls were buffer without enzyme for full effect and enzyme alone for no effect
# Settings: multiplex microsphere protease substrate cleavage, at 10 µM, active compounds read high
row,Structure (SMILES),inhibition
1,CCOC(=O)c1ccc2c(c1)N(CC(=O)N1CCCC1)C(=O)C(C)(C)O2,inconclusive: -3.7%
2,O=C1c2ccccc2C(=O)N1CCSc1nc2ccccc2c(=O)n1CCCN1CCOCC1,inactive: -0.2%
3,Cc1cccc(NC(=O)c2cc(Cl)nc3ccccc23)n1,inconclusive: -44.1%
4,O=C(CCn1c(=O)oc2ccccc21)Nc1cccc(Br)c1,inactive: 0.2%
5,O=C(Cn1nnc(-c2cc(C(F)(F)F)cc(C(F)(F)F)c2)n1)NNC(=S)Nc1ccc(Cl)cc1,inconclusive: 2.5%
6,Cc1ccc(CNCC(O)(c2ccc(F)cc2)c2ccc(F)cc2)cc1,inconclusive: -1.6%
7,Cc1ccccc1N1CCN(C2CCCN(C(=O)c3cn4cccc(C)c4n3)C2)CC1 (stereo not drawn),inactive: 0.3%
8,COc1ccc(-c2cc(C(=O)Nc3c(C)nn(Cc4ccccc4Cl)c3C)no2)cc1OC,inconclusive: -6.8%
9,O=C(Nc1ccc2nc3n(c(=O)c2c1)CCCCC3)c1c(F)ccc([N+](=O)[O-])c1F,inactive: -1.3%
10,CC(=O)NCCCc1nc2ccccc2n1Cc1ccccc1C,inconclusive: -0.5%
11,COC(=O)C(Cc1c[nH]c2ccccc12)NC(=O)c1cccs1 (stereo not drawn),inconclusive: -4.1%
12,COc1ccc(-c2noc(C3CCCN(C(=O)c4ccccc4OC)C3)n2)cc1OC (stereo not drawn),inconclusive: -1.9%
13,CCCCC(=O)N(C)c1c(CC)nc2c(OCC=C(C)C)cccn12,inactive: 0%
14,CCN(CC)CC(C)OC(=O)c1cc(OC)c(OC)c(OC)c1 (stereo not drawn),inconclusive: 5.2%
15,O=C(Nc1ccccc1)c1cc(C2COCCN2C(=O)CCCc2ccccc2)on1 (stereo not drawn),inactive: 0.4%
16,O=C(COC(=O)c1cccnc1Cl)NC1CCCc2ccccc21 (stereo not drawn),inconclusive: -1.9%
17,O=c1ncn(-c2ccc(F)cc2)c2ncccc12,inconclusive: -1%
18,N#CC(c1ccccn1)(c1ncc(C(F)(F)F)cc1Cl)N1CCOCC1 (stereo not drawn),inconclusive: 2.3%
19,Cn1cnnc1SCC(=O)Nc1cc(C(F)(F)F)ccc1N1CCOCC1,inactive: 0.2%
20,CCN(CC)C(=O)CSCc1cnn(-c2ccccc2)c1-n1cccc1,inconclusive: -1.8%
21,NNC(=O)Cn1nc2n(c1=O)-c1ccccc1SC2,inconclusive: -3.7%
22,O=c1[nH]c(=S)[nH]c2c1C(c1ccc(Cl)cc1)OC(C1CCCCC1)C2 (stereo not drawn),inactive: -0.5%
23,Cc1ccc(-c2nn(-c3cc(Cl)ccc3[N+](=O)[O-])c(=O)c3ccccc23)cc1,inactive: -3.3%
24,COc1ccc(NC(=O)NCc2ccncc2)c(OC)c1,inconclusive: -1.7%

row,Structure (SMILES),inhibition
1,COC(=O)c1scc(C)c1N/N=C(\C)c1ccc(F)cc1,inconclusive: -4.4%
2,N#CCCN1CCN(C(=S)c2ccc(-c3ccc(Cl)cc3)o2)CC1,inconclusive: 4.2%
3,COCc1cc(=O)[nH]c(/N=C(\N)Nc2ccc(C)cc2)n1,inconclusive: -1.9%
4,COc1ccc(NC(=O)CN(C)S(=O)(=O)c2ccccc2)cc1OC,inconclusive: -1.7%
5,COc1ccc(OC)c(NC(=O)Nc2ccc(Cl)cc2)c1,inactive: -1.2%
6,O=c1[nH][nH]c(=O)c2c1[nH]c(=S)n2Cc1ccccc1,inactive: -0.4%
7,Cc1ccccc1Nc1nc(N)nc(COC(=O)CCS(=O)(=O)c2ccccc2)n1,inactive: -0.8%
8,O=C(N1CCOCC1)N1CCN(Cc2ccccc2)CC1,inconclusive: 9.3%
9,CCCNC(=O)C1CCN(c2nc(C)cc(C)n2)CC1,inactive: 0.7%
10,CC(=O)C1C(c2cccc(F)c2)c2c(n[nH]c2C)CC1(C)O (stereo not drawn),inconclusive: -9%
11,COC(=O)c1cnc(Oc2ccc(NC(=O)NC(=O)c3c(F)cccc3F)cc2)cc1C(F)(F)F,inconclusive: 11.8%
12,O=C(CBr)Nc1c2c(nn1-c1ccccc1)CSC2,inactive: -2.5%
13,COc1ccccc1NC(=O)CN(Cc1ccco1)C(=O)c1ccc(Cl)nc1,inactive: -0.8%
14,N#Cc1nc(COc2ccc(F)cc2)oc1N1CCC(Cc2ccccc2)CC1,inactive: -0.8%
15,COc1ccc(-n2c(C)nn(C)c2=O)c(OC)c1,inconclusive: 4%
16,CC(C)(C)Sc1ccccc1S(=O)(=O)C(C)(C)C,inconclusive: -30.6%
17,CCOC(=O)c1c(NC(C)=O)sc2c1CCC(C=NCCCN(CC)CC)=C2Sc1ccccc1,active: 67.8%
18,CC1CCc2c(sc(N)c2C(N)=O)C1 (stereo not drawn),inactive: -3.4%
19,O=[N+]([O-])c1ccc(S(=O)(=O)Nc2nnc(C(F)(F)F)s2)cc1,inconclusive: -1.8%
20,CCC1=[N+](CC(=O)c2ccc(C)cc2)CCn2cccc21,inactive: 0.8%
21,CCN1Cc2c(/C=C/c3ccccc3)nc3ccc(OC)cc3c2N(c2cccc(Cl)c2)C1,active: 52.7%
22,CC1CCN(CCc2nc3cc(NC(=O)Nc4ccccc4)ccc3n2C)CC1,inconclusive: -1.1%
23,COC(=O)[C@H](Cc1ccccc1)NC(=O)NCCC1=CCCCC1,inconclusive: -2.5%
24,CC(C)NC(=O)C1(C)CCN1C(=O)c1ccccc1 (stereo not drawn),inactive: -0.1%

row,Structure (SMILES),inhibition
1,Cc1nc(-c2ccc(F)cc2)c(CC(=O)N2CCN(S(=O)(=O)c3ccc(F)cc3)CC2)s1,inconclusive: 15.8%
2,COc1cccc2c1OCC(CN1CCN(Cc3ccccc3F)C(CCO)C1)=C2 (stereo not drawn),inconclusive: -0.2%
3,CN(C(=O)Cn1nnc2ccccc2c1=O)C1CCCCC1,inactive: 4.8%
4,CCc1cc(=O)oc2cc3oc(C)c(C)c3cc12,inconclusive: 2.7%
5,Cc1cc(C)nc(N2C(=O)CC(Cc3ccccc3)C2=O)n1 (stereo not drawn),inconclusive: 22.4%
6,COC(=O)c1c(C(=O)OC)c2c(-c3ccccc3)cc3cccc1n32,active: 36.9%
7,O=C(CN1C(=O)c2ccc([N+](=O)[O-])cc2C1=O)NCCC1=CCCCC1,inconclusive: -177%
8,CCOC(=O)c1cnc(-n2nc(C)cc2C)nc1Nc1ccc(C)cc1,inconclusive: -1.5%
9,COc1ccc(C2C(C(=O)OCC(=O)N3CCCCC3)CCC(=O)N2c2ccc(OC)cc2)cc1 (stereo not drawn),inactive: 0.8%
10,COc1ccc(C(=O)N(C)C2CCCN(Cc3ccccc3F)C2)cc1OC (stereo not drawn),inactive: -1.6%
11,CCCCCCC(=O)Nc1ccc(Cl)cn1,inconclusive: 5.3%
12,CNC(=O)c1csc(Cc2c(Cl)sc3ccc(Cl)cc23)n1,inconclusive: -21.1%
13,COc1ccc(NC(=O)c2c(C)noc2-c2snnc2C)cc1,inconclusive: 9.3%
14,CC(C)Nc1nc(Oc2ccc(Cl)cc2Cl)cc(C(F)(F)F)n1,inconclusive: -5%
15,CCc1ccc(CN2CCN(C(=O)Cc3ccccc3)CC2)cc1,inactive: -1.1%
16,Cc1c(Br)c(=O)oc2c(C)c(O)ccc12,inactive: -0.3%
17,Cc1ccc(N2C(=O)c3ccccc3C2C(=O)c2ccc(C)c(C)c2O)cc1 (stereo not drawn),inconclusive: 19.5%
18,COC(=O)c1ccccc1N=Nc1c(C)n[nH]c1C,inconclusive: 3.6%
19,Cc1cc2c(cc1C)CN(c1ccccc1)C2,inconclusive: 8.7%
20,CC(C)C(NS(=O)(=O)c1c(Cl)cccc1Cl)C(=O)OCC(=O)c1c[nH]c2ccccc12 (stereo not drawn),active: 57.9%
21,CCCCNC(=O)CSc1nc2ccccc2c(=O)n1CC1COc2ccccc2O1 (stereo not drawn),inconclusive: -1.8%
22,CCOC(=O)c1ccc(N2CN=C3SCC(=O)N3C2)cc1,inconclusive: -2.8%
23,CSc1nc2ccc(S(=O)(=O)N(C)C)cc2s1,inconclusive: -0.3%
24,CCCn1nc2cc(C(=O)NCc3ccccc3OC)ccc2c1OCC,inactive: 0.1%

row,Structure (SMILES),inhibition
1,CC(C)(C)CN1CCN(Cc2cc3ccccc3[nH]2)CC1CCO (stereo not drawn),inconclusive: -2.7%
2,O=C(CCCN1C(=O)c2ccccc2C1=O)NCCC1=CCCCC1,inconclusive: 3%
3,CCCCn1c(N)c(N(CCOC)C(=O)c2cnc(C)cn2)c(=O)[nH]c1=O,inconclusive: 4.4%
4,O=C(O)c1ccc(NS(=O)(=O)c2ccc(Cl)c(C(=O)Nc3ccccc3)c2)cc1,inactive: -0.5%
5,CCOC(=O)C1(C)CCN1C(=O)c1cc(OC)ccc1Br (stereo not drawn),inactive: 0%
6,COc1ccc(C2c3c(noc3C)CC(C)(O)C2C(C)=O)cc1 (stereo not drawn),inconclusive: 2.8%
7,O=C(NCCNC(=O)c1cc(OCC(F)(F)F)ccc1OCC(F)(F)F)Nc1cccc(C(F)(F)F)c1,inconclusive: -4.9%
8,CC(C)c1ccc(OCC(=O)NC(=S)Nc2ccc3c4c(cccc24)CC3)cc1,inconclusive: 1.5%
9,C=CCn1c(SCC(=O)c2cc(C)n(C(C)COC)c2C)nc2sc(C)c(C)c2c1=O (stereo not drawn),inconclusive: 4.6%
10,Fc1ccc(NC(=S)N/N=C/c2cccc(Br)c2)c(F)c1,inconclusive: -0.7%
11,COc1ccc(-c2nc(-c3cccnc3)no2)cc1,inconclusive: 5%
12,O=C(COc1ccccc1)NCC(=O)N1CCCC1,inactive: -0.1%
13,CC1Cc2ccccc2N1C(=O)C1CCCCN1S(=O)(=O)c1ccccc1 (stereo not drawn),inconclusive: 2%
14,O=C1NC(=O)C2(Cc3ccccc3N3CCCC32)C(=O)N1Cc1ccccc1 (stereo not drawn),inconclusive: 3.4%
15,Cc1cc(CNCc2c(C(=O)N3CCCCCCC3)nc3ccc(Cl)cn23)nn1C,inactive: 0.2%
16,CCNc1nc(NCC)nc(N/N=C/c2ccc([N+](=O)[O-])o2)n1,inactive: -0.3%
17,O=C(O)c1cccc(CSc2nnc(Cc3ccccc3)o2)c1,inconclusive: -1.2%
18,O=C(Nc1nc(-c2cccs2)c(-c2cccs2)s1)C1CCCC1,inactive: 2.4%
19,O=C(Cc1ccc(Cl)cc1)Nc1cccnc1,inconclusive: -2.6%
20,O=C(CCCN1C(=O)C2CC=CCC2C1=O)Nc1ccccc1F (stereo not drawn),inactive: -0.2%
21,Cc1cc2cc(CNC(=O)c3ccc(S(=O)(=O)N4CCCCC4)cc3)ccc2[nH]1,active: 44.3%

# A portion from the list above, for reference:
row,Structure (SMILES),inhibition
11,CCCCCCC(=O)Nc1ccc(Cl)cn1,inconclusive: 5.3%
12,CNC(=O)c1csc(Cc2c(Cl)sc3ccc(Cl)cc23)n1,inconclusive: -21.1%

# Some of these compounds in order of molar mass, low to high.
row,Structure (SMILES),inhibition
23,COC(=O)[C@H](Cc1ccccc1)NC(=O)NCCC1=CCCCC1,inconclusive: -2.5%
5,CCOC(=O)C1(C)CCN1C(=O)c1cc(OC)ccc1Br (stereo not drawn),inactive: 0%
15,O=C(Nc1ccccc1)c1cc(C2COCCN2C(=O)CCCc2ccccc2)on1 (stereo not drawn),inactive: 0.4%
